No constants are given. Whether binding was seen depends on the method and setting. Binding seen in cells or lysates may run through a third protein. Some entries that bind do so weakly or less than the wild type.
Assays:
Experiment in all cases: split reporter; Gaussia princeps luciferase complementation assay in human HEK293T cells; Gluc2 at the N terminus of SKAP1 or SKAP2 (N2), Gluc1 at the N terminus (N1) or C terminus (C1) of the SRC kinase; 100 ng plasmid pair, PEI; luminescence read in lysate one day later; normalized luminescence ratio (NLR), given relative to wild type or to SKAP2
BLK, N1-fused = BLK, N1-fused (UniProt P51451)
[1] = biological target: FYNT isoform of FYN, C1-fused (UniProt P06241)
[2] = biological target: HCK R150A mutant, C1-fused (UniProt P08631)
[3] = biological target: HCK R150A mutant, N1-fused (UniProt P08631)
BLK, C1-fused = BLK, C1-fused (UniProt P51451)
HCK wild type, N1-fused = HCK wild type, N1-fused (UniProt P08631)
LCK wild type, N1-fused = LCK wild type, N1-fused (UniProt P06239)
FGR, C1-fused = FGR, C1-fused (UniProt P09769)
FGR, N1-fused = FGR, N1-fused (UniProt P09769)
LCK wild type, C1-fused = LCK wild type, C1-fused (UniProt P06239)
[4] = biological target: HCK Y501F mutant, C1-fused (UniProt P08631)
[5] = biological target: HCK Y501F mutant, N1-fused (UniProt P08631)
FRK, C1-fused = FRK, C1-fused (UniProt P42685)
[6] = biological target: FYNB isoform of FYN, N1-fused (UniProt P06241)

Chains of the proteins cited; added tags and fusions are not shown. Lines headed by an entry give the natural chain unless they say otherwise; changes in a name come on top. A line that says so, or that is headed by a name, gives the form on record, which may keep a tag or linker. Residues count along the entry.
UniProt P51451: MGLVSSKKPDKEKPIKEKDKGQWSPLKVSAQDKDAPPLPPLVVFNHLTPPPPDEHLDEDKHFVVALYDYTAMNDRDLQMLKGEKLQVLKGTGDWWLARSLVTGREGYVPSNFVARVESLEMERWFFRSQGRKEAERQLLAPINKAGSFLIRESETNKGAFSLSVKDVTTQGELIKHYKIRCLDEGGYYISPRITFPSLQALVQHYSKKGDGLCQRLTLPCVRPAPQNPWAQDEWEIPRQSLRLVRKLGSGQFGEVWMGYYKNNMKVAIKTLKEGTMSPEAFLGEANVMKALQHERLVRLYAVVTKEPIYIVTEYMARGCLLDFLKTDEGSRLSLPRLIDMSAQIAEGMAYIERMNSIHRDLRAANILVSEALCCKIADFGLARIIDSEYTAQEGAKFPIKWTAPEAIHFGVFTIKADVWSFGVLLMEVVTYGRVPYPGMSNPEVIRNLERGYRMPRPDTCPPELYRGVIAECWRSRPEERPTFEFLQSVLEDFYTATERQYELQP
UniProt P06241: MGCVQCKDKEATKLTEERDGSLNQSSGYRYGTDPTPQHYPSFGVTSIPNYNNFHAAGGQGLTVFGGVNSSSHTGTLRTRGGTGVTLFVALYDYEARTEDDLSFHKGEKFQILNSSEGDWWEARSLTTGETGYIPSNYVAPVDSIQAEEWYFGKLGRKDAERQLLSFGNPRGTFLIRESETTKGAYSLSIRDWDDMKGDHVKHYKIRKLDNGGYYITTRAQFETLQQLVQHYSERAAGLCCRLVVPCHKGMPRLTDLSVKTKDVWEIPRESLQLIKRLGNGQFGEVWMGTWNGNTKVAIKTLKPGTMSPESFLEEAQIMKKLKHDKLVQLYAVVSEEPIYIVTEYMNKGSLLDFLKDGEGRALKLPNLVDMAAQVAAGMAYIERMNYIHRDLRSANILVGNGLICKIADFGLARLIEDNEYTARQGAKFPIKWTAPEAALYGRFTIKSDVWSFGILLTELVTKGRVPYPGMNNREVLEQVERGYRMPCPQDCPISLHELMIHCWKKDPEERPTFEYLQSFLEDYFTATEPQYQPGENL
FYNT isoform of FYN, C1-fused (P06241, form named): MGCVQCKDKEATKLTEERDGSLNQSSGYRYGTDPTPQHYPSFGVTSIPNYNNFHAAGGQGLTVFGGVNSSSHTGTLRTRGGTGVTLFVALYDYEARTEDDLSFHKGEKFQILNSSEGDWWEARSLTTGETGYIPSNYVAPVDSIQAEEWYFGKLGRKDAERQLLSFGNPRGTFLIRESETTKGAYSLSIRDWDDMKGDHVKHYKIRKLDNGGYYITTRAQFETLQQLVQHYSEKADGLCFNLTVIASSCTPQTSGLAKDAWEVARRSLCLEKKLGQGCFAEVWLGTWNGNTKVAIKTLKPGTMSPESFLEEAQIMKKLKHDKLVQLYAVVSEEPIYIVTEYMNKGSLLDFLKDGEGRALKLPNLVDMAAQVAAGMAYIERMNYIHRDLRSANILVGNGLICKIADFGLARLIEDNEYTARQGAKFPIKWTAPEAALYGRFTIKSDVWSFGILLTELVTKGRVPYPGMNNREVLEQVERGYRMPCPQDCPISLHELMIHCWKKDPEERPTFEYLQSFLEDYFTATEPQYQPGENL
HCK wild type, N1-fused (P08631, residues 22-526): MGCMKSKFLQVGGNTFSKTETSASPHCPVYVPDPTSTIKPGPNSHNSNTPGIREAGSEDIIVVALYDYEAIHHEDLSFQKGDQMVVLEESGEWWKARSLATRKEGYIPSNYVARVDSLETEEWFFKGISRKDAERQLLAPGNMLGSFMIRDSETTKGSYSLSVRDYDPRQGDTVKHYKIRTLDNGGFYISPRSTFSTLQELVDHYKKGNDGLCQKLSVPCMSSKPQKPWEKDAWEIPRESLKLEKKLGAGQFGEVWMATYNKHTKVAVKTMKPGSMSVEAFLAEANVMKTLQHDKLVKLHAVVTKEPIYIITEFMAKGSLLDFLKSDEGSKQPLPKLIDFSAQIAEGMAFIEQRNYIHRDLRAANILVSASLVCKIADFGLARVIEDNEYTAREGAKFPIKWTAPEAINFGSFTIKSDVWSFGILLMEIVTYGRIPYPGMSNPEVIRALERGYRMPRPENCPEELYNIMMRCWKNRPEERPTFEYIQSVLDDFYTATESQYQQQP
HCK R150A mutant, N1-fused (P08631, form named): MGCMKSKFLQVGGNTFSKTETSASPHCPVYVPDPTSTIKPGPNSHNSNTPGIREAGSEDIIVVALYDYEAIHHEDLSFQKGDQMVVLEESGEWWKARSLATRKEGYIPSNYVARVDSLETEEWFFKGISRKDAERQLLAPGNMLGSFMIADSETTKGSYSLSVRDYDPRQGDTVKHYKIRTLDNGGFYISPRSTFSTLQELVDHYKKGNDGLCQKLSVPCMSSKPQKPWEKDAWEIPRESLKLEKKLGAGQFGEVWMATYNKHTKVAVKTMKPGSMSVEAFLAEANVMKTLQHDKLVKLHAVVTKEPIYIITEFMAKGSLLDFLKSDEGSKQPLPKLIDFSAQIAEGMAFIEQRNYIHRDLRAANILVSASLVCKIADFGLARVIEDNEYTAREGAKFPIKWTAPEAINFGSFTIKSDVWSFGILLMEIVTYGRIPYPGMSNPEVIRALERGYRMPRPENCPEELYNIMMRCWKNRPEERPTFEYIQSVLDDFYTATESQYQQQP
HCK Y501F mutant, N1-fused (P08631, form named): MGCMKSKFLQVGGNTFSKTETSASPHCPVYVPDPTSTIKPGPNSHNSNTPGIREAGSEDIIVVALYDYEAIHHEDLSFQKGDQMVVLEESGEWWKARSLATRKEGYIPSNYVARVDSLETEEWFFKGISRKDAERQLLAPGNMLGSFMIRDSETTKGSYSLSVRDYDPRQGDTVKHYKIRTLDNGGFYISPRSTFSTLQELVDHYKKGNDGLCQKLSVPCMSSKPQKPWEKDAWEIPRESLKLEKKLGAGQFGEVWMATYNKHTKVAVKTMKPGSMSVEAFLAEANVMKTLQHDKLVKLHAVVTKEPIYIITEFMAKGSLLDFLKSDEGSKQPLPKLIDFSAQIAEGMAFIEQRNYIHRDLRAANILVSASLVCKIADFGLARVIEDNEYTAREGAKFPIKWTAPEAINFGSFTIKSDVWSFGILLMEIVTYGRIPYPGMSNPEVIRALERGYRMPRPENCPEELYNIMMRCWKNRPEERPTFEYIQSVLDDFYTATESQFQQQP
UniProt P06239: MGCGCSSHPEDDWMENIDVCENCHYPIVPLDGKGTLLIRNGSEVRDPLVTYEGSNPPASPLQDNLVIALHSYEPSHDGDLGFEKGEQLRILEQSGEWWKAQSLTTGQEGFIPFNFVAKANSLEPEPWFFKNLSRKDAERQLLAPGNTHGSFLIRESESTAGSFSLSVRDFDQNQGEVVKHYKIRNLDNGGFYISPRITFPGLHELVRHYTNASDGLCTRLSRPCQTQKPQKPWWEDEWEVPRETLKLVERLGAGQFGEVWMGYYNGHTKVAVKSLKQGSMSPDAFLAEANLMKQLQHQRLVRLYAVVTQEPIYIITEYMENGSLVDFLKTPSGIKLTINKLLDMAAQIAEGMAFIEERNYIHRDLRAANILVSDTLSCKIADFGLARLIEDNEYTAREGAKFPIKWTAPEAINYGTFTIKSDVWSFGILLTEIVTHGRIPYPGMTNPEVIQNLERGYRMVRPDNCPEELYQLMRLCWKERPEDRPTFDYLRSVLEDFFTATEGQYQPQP
UniProt P42685: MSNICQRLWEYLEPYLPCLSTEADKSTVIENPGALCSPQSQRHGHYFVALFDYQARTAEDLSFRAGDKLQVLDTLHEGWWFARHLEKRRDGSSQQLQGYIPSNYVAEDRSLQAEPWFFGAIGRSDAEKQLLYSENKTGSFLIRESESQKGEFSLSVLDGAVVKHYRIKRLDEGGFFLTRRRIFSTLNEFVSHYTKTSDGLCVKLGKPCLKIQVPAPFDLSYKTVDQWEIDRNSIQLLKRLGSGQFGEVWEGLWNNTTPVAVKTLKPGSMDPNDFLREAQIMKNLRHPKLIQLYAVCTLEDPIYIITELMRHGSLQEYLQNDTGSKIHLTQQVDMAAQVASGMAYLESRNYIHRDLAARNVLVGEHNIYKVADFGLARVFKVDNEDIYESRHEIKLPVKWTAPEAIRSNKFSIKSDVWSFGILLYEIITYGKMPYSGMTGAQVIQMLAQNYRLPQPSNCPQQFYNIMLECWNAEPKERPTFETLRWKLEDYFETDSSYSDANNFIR
UniProt Q86WV1: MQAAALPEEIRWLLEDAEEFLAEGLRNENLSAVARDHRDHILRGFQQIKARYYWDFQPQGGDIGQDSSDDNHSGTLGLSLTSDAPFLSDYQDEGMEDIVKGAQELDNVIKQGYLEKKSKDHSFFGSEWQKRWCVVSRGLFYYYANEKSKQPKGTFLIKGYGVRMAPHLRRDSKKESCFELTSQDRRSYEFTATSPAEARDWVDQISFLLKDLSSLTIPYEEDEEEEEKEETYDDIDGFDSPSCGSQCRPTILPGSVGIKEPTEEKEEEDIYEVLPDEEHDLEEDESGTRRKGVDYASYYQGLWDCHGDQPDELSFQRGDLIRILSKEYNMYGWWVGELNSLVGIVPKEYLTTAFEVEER
UniProt O75563: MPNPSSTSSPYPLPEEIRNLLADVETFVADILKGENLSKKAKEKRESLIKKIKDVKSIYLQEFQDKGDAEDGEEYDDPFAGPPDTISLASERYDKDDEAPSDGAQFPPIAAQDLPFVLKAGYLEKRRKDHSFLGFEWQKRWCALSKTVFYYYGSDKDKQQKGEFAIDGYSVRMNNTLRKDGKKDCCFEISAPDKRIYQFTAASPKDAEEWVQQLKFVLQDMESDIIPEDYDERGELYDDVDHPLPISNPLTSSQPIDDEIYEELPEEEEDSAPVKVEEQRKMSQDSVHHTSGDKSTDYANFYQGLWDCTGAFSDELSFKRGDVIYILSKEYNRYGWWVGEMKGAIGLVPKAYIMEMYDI

Measured: binding

SRC kinase associated phosphoprotein 1 (SKAP1), wild type, N2-fused (from UniProt Q86WV1 1-359)
binds: all assays above

SRC kinase associated phosphoprotein 2 (SKAP2), wild type, N2-fused (from UniProt O75563 1-359)
binds: all assays above

Reference: publication PMC10939263
